Results are given in words; binding and its absence hold for the method and conditions named. Some binding calls cover weakened binding; strength is not graded here.
Assays:
[1] = molecular target: human CD40 expressed on CHO cells (human) (UniProt P25942); assay: FACS on CHO cells over-expressing human CD40, goat F(ab')2 anti-human IgG-Fc PE, MFI
[2] = molecular target: human CD40-His tag protein (Sino Biological Inc. Cat #10239-H08E) (human) (UniProt P25942); assay: ELISA, plate coated with human CD40-His at 1 ug/ml, anti-human IgG-HRP, A450
[3] = molecular target: human CD40-His tag protein (Sino Biological Inc. Cat #10239-H08E) (human) (UniProt P25942); assay: ELISA, plate coated with human CD40-His, anti-human IgG-HRP detection
[4] = molecular target: human CD40 expressed on CHO cells (human) (UniProt P25942); assay: FACS on CHO cells over-expressing human CD40, chimeric antibodies

The chains behind the UniProt entries cited, without tags or fusion partners. Where a name states a change or a piece, a line headed by the entry shows the natural chain unless it says otherwise.
UniProt P25942: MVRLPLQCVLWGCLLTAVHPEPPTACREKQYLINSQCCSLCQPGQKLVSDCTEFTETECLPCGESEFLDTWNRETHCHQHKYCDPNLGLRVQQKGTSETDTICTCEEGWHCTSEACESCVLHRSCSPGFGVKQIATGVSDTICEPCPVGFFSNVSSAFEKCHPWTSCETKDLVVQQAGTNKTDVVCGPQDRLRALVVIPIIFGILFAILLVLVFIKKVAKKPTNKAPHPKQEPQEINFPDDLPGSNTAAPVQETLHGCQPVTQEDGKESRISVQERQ

Measured: binding

B1: LYV378 (chimeric antibody, 9F12D9 in human IgG4SP / human kappa) (antibody, V domains shown)
VH: EVHLVESGGGLVQPGRSLKLSCAASGFTFTNYGLHWIRQAPTKGLEWVASISPSGGVTYYRDSVKGRFTISRDNGKTTLHLQMDSLRSEDTATYYCALPFLGWGGANWIAHWGQGTLVTVSS
VL: DIQMTQSPASLSASLGETVSIECLASEDISNDLAWYQQKSGKSPQLLIYFVDRLLDGVPSRFSGSGSGTRHSLKISGMQPEDEADYFCQQSYKYPPTFGGGTKLELKR
binds: all assays above

B2: LYV379 (chimeric antibody, 17C5C2 in human IgG4SP / human kappa) (antibody, V domains shown)
VH: EVHILETGGGLVKPGGSLGLSCTTSGFNFNDYFMNWVRQAPGKGLEWVAQIRNGNYDYAAYYAESLEGRVTISRDDSKSSVNLQVSSLRAEDTAIYYCTSYYYDGHFDYFDNWGHGVMVTVSS
VL: DIKVTQSPSFLSASVGDRATINCKASQNLNKYLNWYQQKPGEPPKLLIYNTDNLYTGIPSRFSGSGSVADFTLTISGLQPEDVATYFCMQHNVRRTFGGGTKLELKR
binds: all assays above

B3: LYV391 (chimeric antibody, 36G7B8 in hG4SP / human kappa) (antibody, human IgG4 S228P, kappa, V domains shown)
VH: QVQLQQPGAELVRPGASVKLSCKASGYIFISYWIHWLKQRPGRGLEWIGRIDPNNGGTKYNEKFRYKASLTVDKSSSTAYMQLSSLTSEDSAVYYCTKGVITTLVAGDYWGQGTTLTVSS
VL: DVVMTQIPLSLPVSIGDQASISCRSSQSLVYSYGNTYLHWFLQKPGQSPKLLIYNVSNRFSGVPDRFSGSGSGTDFTLRISRVEAEDLGVYFCSQGTHVPWTFGGGTKLEIKR
binds: all assays above

B4: LYV376 (chimeric antibody, 19G6D6 in human IgG4SP / human kappa) (antibody, V domains shown)
VH: EVQLQQSGPELVKPGASVKIPCKASGYTFTDYNMDWVKQSHGKSLEWIGDINPNNDISIYNQKFRGKATLTVDKSSSTAYMELRSLTSEDTAVYYCARRFAYWGQGTLVTVSA
VL: EIVLTQSPTTMAASPGEKITITCSASSSISSNYLHWYQQKPGSSPKVLIYRTSNLASGVPVRFSGSGSGTSYSLTIGTMEAEDVATYYCQQGSSIPYTFGGGTKLEIKR
binds: all assays above

B5: LYV377 (chimeric antibody, 13F1A7 in human IgG4SP / human kappa) (antibody, V domains shown)
VH: EVQILETGGGLVKPGGSLRLSCATSGFNFNDSFMNWVRQAPGKGLEWVAQIRNKNYNYATYYTESLEGRVTISRDDSKSRVYLQVSSLRAEDSAVYYCTSYYYDGFADYFDYWGQGVMVTVSS
VL: DIKMTQSPSFLSASVGDSVTFTCKASQNIYIYLNWYQQKFGEAPKLLIYNTNNLQTGIPSRFSGSESGTVFTLTISSLQPEDVATYFCLQHSSRRTFGGGTKLELKR
binds: all assays above

From patent US20210179727A1
